Results from paper PMC8241751, “Influence of the Dabcyl group on the cellular uptake of cationic peptides: short oligoarginines as efficient cell-penetrating peptides” (Amino Acids, 2021).
Where a SMILES comes first, the peptide text is derived from it. The star is where a group is joined. 5FAM = O=C1OC2(c3ccc(O)cc3Oc3cc(O)ccc32)c2ccc(C(=O)*)cc21; X1 = CN(C)c1ccc(/N=N/c2ccc(C(=O)*)cc2)cc1

Test: Effect of trypsin digestion (FRET) on the fluorescence signal
Conditions: c = 10 μM, 10 min, measure of intramolecular FRET quenching

Compound: CN(C)c1ccc(/N=N/c2ccc(C(=O)N[C@@H](CCCNC(=N)N)C(=O)N[C@@H](CCCNC(=N)N)C(=O)N[C@@H](CCCNC(=N)N)C(=O)N[C@@H](CCCNC(=N)N)C(=O)N[C@@H](CCCNC(=N)N)C(=O)N[C@@H](CCCNC(=N)N)C(=O)N[C@@H](CCCCNC(=O)c3ccc4c(c3)C(=O)OC43c4ccc(O)cc4Oc4cc(O)ccc43)C(N)=O)cc2)cc1 [Dabcyl–Arg6–Lys(Cf)–NH2] (X1-RRRRRRK(5FAM)-NH2)
- Increase of fluorescence intensity after digestion by trypsin: 4 times

Compound: Dabcyl–RRRRRRK(Rh)–NH2 [Dabcyl–Arg6–Lys(Rh)–NH2, Dabcyl-modified hexaarginine with carboxytetramethylrhodamine on lysine]
- Increase of fluorescence intensity after digestion by trypsin: 1.8 times
